Source: doi:10.1101/2022.10.19.512916
These are yes or no findings as the source states them, for the method shown. In cells and extracts the contact can be indirect. Some entries that bind do so weakly or less than the wild type.

The chains behind the UniProt entries cited, without tags or fusion partners.
UniProt P15924: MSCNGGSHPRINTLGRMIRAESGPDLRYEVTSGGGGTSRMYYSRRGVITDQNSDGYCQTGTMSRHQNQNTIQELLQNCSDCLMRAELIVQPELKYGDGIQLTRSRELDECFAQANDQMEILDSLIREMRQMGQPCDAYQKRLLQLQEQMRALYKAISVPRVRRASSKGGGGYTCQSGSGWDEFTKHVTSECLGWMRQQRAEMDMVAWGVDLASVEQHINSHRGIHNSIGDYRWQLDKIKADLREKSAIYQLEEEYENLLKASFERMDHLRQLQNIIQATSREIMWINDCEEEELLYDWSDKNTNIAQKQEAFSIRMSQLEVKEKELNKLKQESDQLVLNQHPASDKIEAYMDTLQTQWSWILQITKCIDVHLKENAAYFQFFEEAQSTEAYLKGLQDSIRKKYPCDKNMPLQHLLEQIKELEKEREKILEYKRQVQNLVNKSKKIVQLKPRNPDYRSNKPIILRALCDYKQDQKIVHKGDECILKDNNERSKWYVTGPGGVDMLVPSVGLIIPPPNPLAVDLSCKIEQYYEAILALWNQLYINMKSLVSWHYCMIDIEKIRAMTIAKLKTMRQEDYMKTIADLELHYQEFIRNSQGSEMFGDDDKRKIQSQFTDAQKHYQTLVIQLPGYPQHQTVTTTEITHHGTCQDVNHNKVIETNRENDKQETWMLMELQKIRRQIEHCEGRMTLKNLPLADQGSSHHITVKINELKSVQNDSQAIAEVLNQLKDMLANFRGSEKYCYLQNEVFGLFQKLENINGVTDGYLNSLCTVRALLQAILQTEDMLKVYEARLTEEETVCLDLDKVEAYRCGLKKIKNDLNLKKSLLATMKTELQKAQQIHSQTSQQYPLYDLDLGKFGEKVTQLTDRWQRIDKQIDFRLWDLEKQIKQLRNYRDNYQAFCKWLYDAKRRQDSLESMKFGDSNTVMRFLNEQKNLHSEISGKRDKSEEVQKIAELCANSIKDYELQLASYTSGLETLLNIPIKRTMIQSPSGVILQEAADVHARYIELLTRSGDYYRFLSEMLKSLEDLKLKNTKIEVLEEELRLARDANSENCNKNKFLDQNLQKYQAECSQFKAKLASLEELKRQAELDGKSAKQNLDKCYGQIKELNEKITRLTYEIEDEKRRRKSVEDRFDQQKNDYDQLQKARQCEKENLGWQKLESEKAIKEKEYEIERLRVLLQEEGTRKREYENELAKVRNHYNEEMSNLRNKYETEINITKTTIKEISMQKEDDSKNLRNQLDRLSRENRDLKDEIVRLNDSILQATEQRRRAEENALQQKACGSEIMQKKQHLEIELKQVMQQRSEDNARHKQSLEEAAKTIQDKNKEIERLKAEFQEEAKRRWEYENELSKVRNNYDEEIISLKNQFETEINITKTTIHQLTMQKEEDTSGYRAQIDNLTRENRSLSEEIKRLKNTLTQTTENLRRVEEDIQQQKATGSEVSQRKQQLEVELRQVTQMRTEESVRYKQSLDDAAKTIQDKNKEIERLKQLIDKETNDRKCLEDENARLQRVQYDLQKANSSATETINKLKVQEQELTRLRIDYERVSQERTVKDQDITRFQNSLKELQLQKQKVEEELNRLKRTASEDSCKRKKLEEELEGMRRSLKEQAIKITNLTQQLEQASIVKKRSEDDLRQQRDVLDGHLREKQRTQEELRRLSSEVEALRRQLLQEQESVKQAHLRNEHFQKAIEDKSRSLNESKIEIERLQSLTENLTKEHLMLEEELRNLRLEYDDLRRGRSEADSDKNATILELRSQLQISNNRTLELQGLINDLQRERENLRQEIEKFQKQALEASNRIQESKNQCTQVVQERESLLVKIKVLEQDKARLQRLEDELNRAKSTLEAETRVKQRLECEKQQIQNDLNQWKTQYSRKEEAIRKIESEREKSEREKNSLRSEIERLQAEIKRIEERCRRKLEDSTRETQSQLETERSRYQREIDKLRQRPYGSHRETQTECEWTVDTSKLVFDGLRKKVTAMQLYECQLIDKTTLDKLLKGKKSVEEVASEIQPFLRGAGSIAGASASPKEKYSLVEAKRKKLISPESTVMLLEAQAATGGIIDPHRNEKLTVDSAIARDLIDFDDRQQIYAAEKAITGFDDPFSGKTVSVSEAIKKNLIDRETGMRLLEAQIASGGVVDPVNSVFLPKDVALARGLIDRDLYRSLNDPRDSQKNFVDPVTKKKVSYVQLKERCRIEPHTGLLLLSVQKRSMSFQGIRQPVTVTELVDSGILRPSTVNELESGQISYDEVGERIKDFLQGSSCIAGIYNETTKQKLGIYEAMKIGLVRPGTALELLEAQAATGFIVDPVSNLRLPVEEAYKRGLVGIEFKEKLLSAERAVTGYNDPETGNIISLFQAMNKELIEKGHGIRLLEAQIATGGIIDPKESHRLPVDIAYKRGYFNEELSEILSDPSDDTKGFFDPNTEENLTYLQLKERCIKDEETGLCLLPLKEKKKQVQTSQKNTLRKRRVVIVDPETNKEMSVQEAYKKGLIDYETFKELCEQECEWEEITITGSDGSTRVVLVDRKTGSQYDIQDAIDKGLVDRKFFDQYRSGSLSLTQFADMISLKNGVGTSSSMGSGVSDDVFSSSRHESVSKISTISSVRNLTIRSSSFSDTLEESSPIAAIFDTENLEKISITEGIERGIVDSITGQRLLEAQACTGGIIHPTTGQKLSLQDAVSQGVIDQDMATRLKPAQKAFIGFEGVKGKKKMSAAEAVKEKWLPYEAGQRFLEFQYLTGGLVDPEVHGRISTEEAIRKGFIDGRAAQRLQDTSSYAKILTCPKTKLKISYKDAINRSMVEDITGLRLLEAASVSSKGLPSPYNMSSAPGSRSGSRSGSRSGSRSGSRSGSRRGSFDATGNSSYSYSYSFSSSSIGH

Molecular target: T1, PP2A regulatory subunit B55α (human (endogenous in SCC9)) (UniProt P63151)
T1 sequence: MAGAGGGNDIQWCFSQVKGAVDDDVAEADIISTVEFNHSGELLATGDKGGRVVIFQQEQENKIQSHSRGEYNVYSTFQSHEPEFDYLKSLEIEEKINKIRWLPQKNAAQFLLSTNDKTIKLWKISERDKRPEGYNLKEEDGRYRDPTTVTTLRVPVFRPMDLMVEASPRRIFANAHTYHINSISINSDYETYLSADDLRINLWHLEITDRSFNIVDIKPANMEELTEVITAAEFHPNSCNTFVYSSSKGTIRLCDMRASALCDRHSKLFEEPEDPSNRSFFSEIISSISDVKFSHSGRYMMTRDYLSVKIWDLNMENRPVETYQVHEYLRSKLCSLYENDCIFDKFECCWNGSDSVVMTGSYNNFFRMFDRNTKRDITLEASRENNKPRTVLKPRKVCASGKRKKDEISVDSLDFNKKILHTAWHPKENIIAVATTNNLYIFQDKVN
Assay: co-IP

Substance: desmoplakin (DP) (from UniProt P15924 1-2871)
- binding: binds
